PubChem BioAssay AID602196 | INSERM | 2012

Aim: 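Modifiers of cisplatin sensitivity in A549 cells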
System: human A549 lung cancer cells
Knock-down reagent: siRNA pair against human genes
Duration: 48 h transfection before cisplatin; time from cisplatin to read-out not stated
Treatment: cisplatin at a dose killing half of control-siRNA cells; exact dose and duration not given
Measured: 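Shift in cisplatin death relative to control siRNA, from -50 (all cells die) to +50 (no cells die); siRNAs harmful on their own scored 0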
Direction: two-siRNA summed score (-2 to +2): higher = both siRNAs protect from cisplatin killing; -2 means both sensitise
Hit rule: 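Each siRNA scores 0 if harmful alone by LDH or WST-1, otherwise +1 if it reduces and -1 if it increases cisplatin killing; a gene is active when both siRNAs agree (sum +2 or -2)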
Calls: active = both siRNAs shift cisplatin killing the same way; inactive = no consistent shift, or siRNA harmful alone
In all, the deposit lists about 23,000 reagents; shown is an unselected part. 455 of all reagents (2%) count as active. 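Active includes both protection and sensitisation; some change values fall well beyond the stated -50 to +50 range.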 The numbers tell different reagents against one gene apart. Not all columns of the deposit are shown. Not given: the amount of reagent.

two-siRNA summed score (-2 to +2), by gene and reagent
LINC01547: #1 0 inactive; #2 0 inactive
LOC440384: #1 1 inactive
KIF1A: #1 0 inactive
POM121L9P: #1 0 inactive
CYTOR: #1 0 inactive; #2 0 inactive
CTSW: #1 0 inactive
LOC283400: #1 0 inactive
KIAA1975: #1 1 inactive
LIN7C: #1 0 inactive
SORT1: #1 0 inactive
LOC442521: #1 0 inactive
LILRA1: #1 -1 inactive
SLC39A13: #1 1 inactive
USF3: #1 1 inactive
LMBR1L: #1 0 inactive
STIL: #1 0 inactive
MRC1: #1 0 inactive; #2 0 inactive
ADHFE1: #1 1 inactive
LOC388174: #1 0 inactive
LOC441897: #1 1 inactive

Already shown: 3 of the entries above.
two-siRNA summed score (-2 to +2), by gene and reagent
LMBR1L: #1 0 inactive
STIL: #1 0 inactive
MRC1: #1 0 inactive
